Measured data: PubChem BioAssay AID1259308 (NCATS, 2017)

Screen: 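Knock-downs that increase output of a recombinant reporter protein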 (primary screen)
System: human HEK293 embryonic kidney cells stably expressing firefly luciferase (HEK-CMV-Luc2-Hygro)
Reagents: single siRNA against human genes, 0.8 pmol siRNA per well
Duration: 72 h
Detection: 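Reporter luminescence and viable-cell signal on separate replicate plates, given as percent of non-targeting control and median/MAD z-scores, plus per-cell luciferase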
Direction: total luciferase, z-score and total luciferase, % of control: higher = more reporter protein produced; luciferase per cell, z-score: higher = more reporter output per viable cell; viable cells, % of control: higher = more viable cells
Hit rule: 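Active when the median/MAD z-score for overall luciferase is greater than 3; a gene was taken forward for validation with new siRNAs if at least two of its three siRNAs passed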
Meaning of the calls: active = raised luciferase; inactive = no rise
The deposit covers about 59,000 reagents; this is a random part of them. About 1,510 of them (2.6%) count as active. 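Calls use total luciferase alone and ignore viability, so some active siRNAs may act by altering cell number.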 Unmarked entries are inactive. The numbers tell different reagents against one gene apart. Reagent sequences are not shown.

Target gene | siRNA no. | total luciferase, z-score | total luciferase, % of control | luciferase per cell, z-score | viable cells, % of control
IQCF5 (IQ motif containing F5) | 1 | -0.819 | 65.6 | -0.511 | 83.9
IQCF5 (IQ motif containing F5) | 2 | 0.908 | 100 | 0.923 | 87.6
IQCF5 (IQ motif containing F5) | 3 | -0.56 | 70.8 | -0.483 | 89.8
ZNF397 (zinc finger protein 397) | 1 | 0.158 | 85 | 0.0821 | 93
ZNF397 (zinc finger protein 397) | 2 | -1.63 | 49.4 | -1.66 | 85.6
ZNF397 (zinc finger protein 397) | 3 | 0.107 | 84 | -0.374 | 104
HSPB1 (heat shock protein family B (small) member 1) | 1 | -2.25 | 37.2 | -2.75 | 85.8
HSPB1 (heat shock protein family B (small) member 1) | 2 | -0.241 | 77.1 | -0.781 | 106
HSPB1 (heat shock protein family B (small) member 1) | 3 | -1.99 | 42.3 | -0.0442 | 47.8
AKR7A3 (aldo-keto reductase family 7 member A3) | 1 | -0.151 | 78.9 | -0.962 | 114
AKR7A3 (aldo-keto reductase family 7 member A3) | 2 | -0.014 | 81.6 | -0.072 | 92.9
AKR7A3 (aldo-keto reductase family 7 member A3) | 3 | 1.73 | 116 | 1.72 | 82.5
CRELD2 (CRELD disulfide isomerase 2) | 1 | 0.255 | 87 | 0.0216 | 96.6
CRELD2 (CRELD disulfide isomerase 2) | 2 | -0.145 | 79 | -0.371 | 97.4
CRELD2 (CRELD disulfide isomerase 2) | 3 | -0.429 | 73.4 | -0.718 | 99
UBE2F (ubiquitin conjugating enzyme E2 F (putative)) | 1 | -0.153 | 78.8 | 0.0149 | 87.8
UBE2F (ubiquitin conjugating enzyme E2 F (putative)) | 2 | -0.411 | 73.7 | -0.892 | 104
UBE2F (ubiquitin conjugating enzyme E2 F (putative)) | 3 | -0.477 | 72.4 | -1.36 | 116
ATP5MC3 (ATP synthase membrane subunit c locus 3) | 1 | -0.359 | 74.7 | -0.176 | 87.5
ATP5MC3 (ATP synthase membrane subunit c locus 3) | 2 | 0.955 | 101 | 0.525 | 98.2
ATP5MC3 (ATP synthase membrane subunit c locus 3) | 3 | -0.609 | 69.8 | -1.33 | 111
ARL16 (ARF like GTPase 16) | 1 | 0.289 | 87.6 | 0.534 | 85.1
ARL16 (ARF like GTPase 16) | 2 | 0.322 | 88.3 | 0.733 | 81.3
ARL16 (ARF like GTPase 16) | 3 | 1.59 | 114 | 2.01 | 74.8
NT5C2 (5'-nucleotidase, cytosolic II) | 1 | -2.24 | 37.4 | -1.87 | 68.5
NT5C2 (5'-nucleotidase, cytosolic II) | 2 | -0.544 | 71.1 | -0.824 | 98.6
NT5C2 (5'-nucleotidase, cytosolic II) | 3 | 2.58 | 133 | 1.89 | 90.6
ATOH1 (atonal bHLH transcription factor 1) | 1 | -1.37 | 54.7 | -1.99 | 103
ATOH1 (atonal bHLH transcription factor 1) | 2 | -1.06 | 60.9 | -0.41 | 75.8
ATOH1 (atonal bHLH transcription factor 1) | 3 | -0.863 | 64.7 | -0.792 | 89.1
LOC112268070 | 1 | 1.02 | 102 | 0.607 | 97.3
LOC112268070 | 2 | 1.25 | 107 | 0.75 | 97.9
LOC112268070 | 3 | 1.36 | 109 | 1.11 | 91
PSMD9 (proteasome 26S subunit, non-ATPase 9) | 1 | -0.12 | 79.5 | 0.283 | 82.5
PSMD9 (proteasome 26S subunit, non-ATPase 9) | 2 | -1.05 | 60.9 | -0.9 | 86.3
PSMD9 (proteasome 26S subunit, non-ATPase 9) | 3 | 0.653 | 94.9 | 1.99 | 62.8
DYNLT3 (dynein light chain Tctex-type 3) | 1 | 2.08 | 123 | 1.83 | 85.1
DYNLT3 (dynein light chain Tctex-type 3) | 2 | -0.352 | 74.9 | -0.0415 | 84.6
DYNLT3 (dynein light chain Tctex-type 3) | 3 | -1.71 | 47.8 | -1.82 | 86.1
GPR65 (G protein-coupled receptor 65) | 1 | 0.545 | 92.7 | 0.72 | 85.7
GPR65 (G protein-coupled receptor 65) | 2 | -1.13 | 59.4 | -1.45 | 97.3
GPR65 (G protein-coupled receptor 65) | 3 | -1.15 | 59 | -0.701 | 79.3
GRID2 (glutamate ionotropic receptor delta type subunit 2) | 1 | -0.771 | 66.6 | -1.29 | 104
GRID2 (glutamate ionotropic receptor delta type subunit 2) | 2 | 0.697 | 95.8 | 0.222 | 101
GRID2 (glutamate ionotropic receptor delta type subunit 2) | 3 | -0.323 | 75.5 | -0.122 | 87.1
SUCLG2P2 (SUCLG2 pseudogene 2) | 1 | -0.346 | 75 | 0.881 | 66.5
SUCLG2P2 (SUCLG2 pseudogene 2) | 2 | -0.172 | 78.5 | 0.135 | 84.6
SUCLG2P2 (SUCLG2 pseudogene 2) | 3 | -0.658 | 68.8 | -0.602 | 90.1
SHISAL2A (shisa like 2A) | 1 | 0.472 | 91.3 | 0.169 | 97.6
SHISAL2A (shisa like 2A) | 2 | -1.01 | 61.7 | -0.755 | 84.2
SHISAL2A (shisa like 2A) | 3 | 0.00926 | 82.1 | 0.713 | 76
BNIPL (BCL2 interacting protein like) | 1 | 0.58 | 93.4 | 0.305 | 96.3
BNIPL (BCL2 interacting protein like) | 2 | 1.61 | 114 | 1.61 | 83.4
BNIPL (BCL2 interacting protein like) | 3 | 0.461 | 91 | 0.0892 | 99.4
INAVA (innate immunity activator) | 1 | -2.51 | 31.9 | -3.04 | 79.5
INAVA (innate immunity activator) | 2 | -1.57 | 50.7 | -1.18 | 77.2
INAVA (innate immunity activator) | 3 | -0.651 | 68.9 | -0.67 | 91.9
LGALS14 (galectin 14) | 1 | -0.5 | 71.9 | -0.673 | 96
LGALS14 (galectin 14) | 2 | -1.03 | 61.4 | -1.55 | 103
LGALS14 (galectin 14) | 3 | -1.51 | 51.9 | -1.57 | 87.6
PNISR (PNN interacting serine and arginine rich protein) | 1 | -0.19 | 78.1 | -0.108 | 89.8
PNISR (PNN interacting serine and arginine rich protein) | 2 | -1.17 | 58.7 | -1.19 | 89.7
PNISR (PNN interacting serine and arginine rich protein) | 3 | 0.0819 | 83.5 | -0.165 | 97.5
SLC43A3 | 1 | 1.49 | 111 | 1.15 | 92.1
SLC43A3 | 2 | 0.242 | 86.7 | -0.449 | 109
SLC43A3 | 3 | -0.803 | 65.9 | 0.784 | 59.9
MAVS (mitochondrial antiviral signaling protein) | 1 | -2.11 | 39.9 | -1.37 | 64.1
MAVS (mitochondrial antiviral signaling protein) | 2 | 1.89 | 119 | 0.957 | 104
MAVS (mitochondrial antiviral signaling protein) | 3 | -1.12 | 59.6 | -0.948 | 85.5
NEB (nebulin) | 1 | -0.202 | 77.9 | -0.396 | 96.6
NEB (nebulin) | 2 | 0.372 | 89.3 | -0.506 | 114
NEB (nebulin) | 3 | 0.374 | 89.3 | -0.309 | 108
SLC35D3 | 1 | -0.144 | 79 | -0.979 | 114
SLC35D3 | 2 | -0.277 | 76.4 | -0.0268 | 86
SLC35D3 | 3 | 0.157 | 85 | 0.797 | 77

In a second layout: entries from further up.
DYNLT3 (dynein light chain Tctex-type 3) #1 — total luciferase, z-score = 2.08; total luciferase, % of control = 123; luciferase per cell, z-score = 1.83; viable cells, % of control = 85.1
DYNLT3 (dynein light chain Tctex-type 3) #2 — total luciferase, z-score = -0.352; total luciferase, % of control = 74.9; luciferase per cell, z-score = -0.0415; viable cells, % of control = 84.6
DYNLT3 (dynein light chain Tctex-type 3) #3 — total luciferase, z-score = -1.71; total luciferase, % of control = 47.8; luciferase per cell, z-score = -1.82; viable cells, % of control = 86.1
GPR65 (G protein-coupled receptor 65) #1 — total luciferase, z-score = 0.545; total luciferase, % of control = 92.7; luciferase per cell, z-score = 0.72; viable cells, % of control = 85.7
GPR65 (G protein-coupled receptor 65) #2 — total luciferase, z-score = -1.13; total luciferase, % of control = 59.4; luciferase per cell, z-score = -1.45; viable cells, % of control = 97.3
GPR65 (G protein-coupled receptor 65) #3 — total luciferase, z-score = -1.15; total luciferase, % of control = 59; luciferase per cell, z-score = -0.701; viable cells, % of control = 79.3
GRID2 (glutamate ionotropic receptor delta type subunit 2) #1 — total luciferase, z-score = -0.771; total luciferase, % of control = 66.6; luciferase per cell, z-score = -1.29; viable cells, % of control = 104
GRID2 (glutamate ionotropic receptor delta type subunit 2) #2 — total luciferase, z-score = 0.697; total luciferase, % of control = 95.8; luciferase per cell, z-score = 0.222; viable cells, % of control = 101
GRID2 (glutamate ionotropic receptor delta type subunit 2) #3 — total luciferase, z-score = -0.323; total luciferase, % of control = 75.5; luciferase per cell, z-score = -0.122; viable cells, % of control = 87.1
